Data from article PMC11257983 (2024).
Numbering of substitutions follows the chain as printed. Results are given in words; binding and its absence hold for the method and conditions named. Binding seen in cells or lysates may run through a third protein. Some results given as binding are weak or reduced against the parent protein; the word gives no strength. Where a sequence is shown, tags or fusion partners need not be part of it.

The chains behind the UniProt entries cited, without tags or fusion partners.
UniProt Q24324: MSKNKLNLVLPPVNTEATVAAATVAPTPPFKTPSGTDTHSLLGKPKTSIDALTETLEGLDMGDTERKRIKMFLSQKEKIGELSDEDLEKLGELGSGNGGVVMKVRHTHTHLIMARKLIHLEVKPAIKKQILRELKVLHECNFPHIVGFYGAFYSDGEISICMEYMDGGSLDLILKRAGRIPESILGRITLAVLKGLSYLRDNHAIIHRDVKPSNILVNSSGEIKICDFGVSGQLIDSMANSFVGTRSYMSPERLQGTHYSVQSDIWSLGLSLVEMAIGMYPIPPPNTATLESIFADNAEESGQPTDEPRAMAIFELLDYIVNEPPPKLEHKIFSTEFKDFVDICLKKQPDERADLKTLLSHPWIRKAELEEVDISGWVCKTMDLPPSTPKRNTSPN

How the values were obtained:
[1] = biological target: T1, V5-KSR K903D (Drosophila) (UniProt Q24171); experiment: co-IP; anti-V5 immunoprecipitation of V5-KSR from S2 total lysates, protein A/G agarose, overnight at 4 °C; MEK blotted; without or with co-expressed CNK^2–549–HYP
T1 sequence: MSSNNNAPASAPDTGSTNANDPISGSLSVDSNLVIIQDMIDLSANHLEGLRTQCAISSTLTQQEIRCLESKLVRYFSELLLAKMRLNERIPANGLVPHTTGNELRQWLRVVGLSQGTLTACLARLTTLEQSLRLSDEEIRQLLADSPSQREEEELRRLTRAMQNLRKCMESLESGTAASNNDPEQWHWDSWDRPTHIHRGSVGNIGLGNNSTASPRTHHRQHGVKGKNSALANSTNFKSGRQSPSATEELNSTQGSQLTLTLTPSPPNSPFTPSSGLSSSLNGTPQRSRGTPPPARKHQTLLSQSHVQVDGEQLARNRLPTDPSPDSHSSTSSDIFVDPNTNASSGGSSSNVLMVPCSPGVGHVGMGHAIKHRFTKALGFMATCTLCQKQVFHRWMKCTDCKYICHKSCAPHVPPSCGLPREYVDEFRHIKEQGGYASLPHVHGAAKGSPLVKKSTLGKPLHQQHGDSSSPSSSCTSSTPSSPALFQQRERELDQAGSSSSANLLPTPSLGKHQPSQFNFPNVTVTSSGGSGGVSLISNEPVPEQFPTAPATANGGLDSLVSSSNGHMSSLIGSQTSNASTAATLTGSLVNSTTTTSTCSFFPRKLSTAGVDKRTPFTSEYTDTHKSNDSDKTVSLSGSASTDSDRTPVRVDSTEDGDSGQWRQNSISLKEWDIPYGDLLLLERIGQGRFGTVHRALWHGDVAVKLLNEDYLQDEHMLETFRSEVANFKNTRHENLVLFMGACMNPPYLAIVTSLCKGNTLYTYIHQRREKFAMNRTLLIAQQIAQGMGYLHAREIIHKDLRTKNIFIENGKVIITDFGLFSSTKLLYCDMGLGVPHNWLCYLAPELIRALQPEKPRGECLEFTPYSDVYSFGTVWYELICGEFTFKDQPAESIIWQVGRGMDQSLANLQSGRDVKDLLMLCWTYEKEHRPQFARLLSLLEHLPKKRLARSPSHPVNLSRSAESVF

[2] = biological target: T2, V5-KSR M902D (Drosophila) (UniProt Q24171); experiment: as above
T2 sequence: T1 sequence with M902D, D903K

## Myc-MEK (from UniProt Q24324 1-396)
[1]
  binding: binds
[2]
  binding: binds
